Measured values reported in US11338007B2, “Combination formulation of three antiviral compounds” (priority 2016, dated 2022).
Further values from the same series stand in other lists.

Experiment: Stability of clinical film-coated tablets Batches A-D (Tables 14, 15A-15C)
Type: physicochemical
Settings: for Total Imp./Deg. (%): tablets Batch C, 1 g desiccant
Method: FIGS. 10-12 depict additional dissolution profiles for the sofosbuvir/velpatasvir SSD/voxilaprevir SSD tablets having the formulation described in Table 13 and which were used in phase 1, 2, and 3 clinical studies, where the dissolution testing was conducted at pH 5.0 acetate buffer containing 2.0% w/v polysorbate 80. Four batches of the sofosbuvir/velpatasvir SSD/voxilaprevir SSD tablets were tested, with Batch A manufactured at 100 kg and Batches B, C and D manufactured at 145 kg. All other aspects of the formulation and manufacturing process were otherwise equivalent. The four batches were packed in the same commercial configuration: 28 count, 100 mL HPDE bottle with 1 g silica gel desiccant canister and a polyester fiber coil. […] Moreover, for Batch A, the amount dissolved at 30 min remained between 98 and 100% for sofosbuvir, between 90 and 92% for velpatasvir SSD, and between 89 and 93% for voxilaprevir SSD. […] For Batch D, the amount dissolved at 30 min remained at 100% for sofosbuvir, between 90 and 91% for velpatasvir SSD, and between 89 and 91% for voxilaprevir SSD. Release of velpatasvir SSD and voxilaprevir SSD from the sofosbuvir/velpatasvir SSD/voxilaprevir SSD tablets associated with all four Batches was complete after 60 minutes.
Stability data associated with the sofosbuvir/velpatasvir SSD/voxilaprevir SSD film-coated tablets (Batch A) are presented in Table 14. […] No upward trend in the content of degradation products was observed over the time period studied. The water content for packaged tablets remained between 1.9 and 2.3% through 6 months storage at 40° C./75% RH, 30° C./75% RH, and 25° C./60% RH. As summarized in Table 14, the packaged tablets (Batch A) were physically stable with no change in XRPD patterns after 6 months storage.
Stability data associated with the sofosbuvir/velpatasvir SSD/voxilaprevir SSD film-coated tablets (Batches B-D) are presented in Tables 15A-15C, respectively. […] No upward trend in the content of degradation products was observed over the time period studied. The water content for packaged tablets remained between 1.8 and 2.3% through 6 months storage at 40° C./75% RH, 30° C./75% RH, and 25° C./60% RH. The packaged tablets were physically stable with no change in XRPD patterns after 6 months storage.
For Batch D, the packaged tablets had acceptable chemical stability for up to 1 month under all conditions with total impurities/degradation products of sofosbuvir remaining at 0.0%, velpatasvir SSD remaining between 0.7 and 0.8%, and voxilaprevir SSD remaining at 0.0%. No upward trend in the content of degradation products was observed over the time period studied. The water content for packaged tablets remained between 1.9 and 2.3% through 1 month storage at 40° C./75% RH, 30° C./75% RH, and 25° C./60% RH.

CC(C)OC(=O)C(C)N[P@](=O)(OC[C@H]1O[C@@H](n2ccc(=O)[nH]c2=O)[C@](C)(F)[C@@H]1O)Oc1ccccc1 (stereo in doubt) [sofosbuvir, (S)-isopropyl 2-(((S)-(((2R,3R,4R,5R)-5-(2,4-dioxo-3,4-dihydropyrimidin-1(2H)-yl)-4-fluoro-3-hydroxy-4-methyltetrahydrofuran-2-yl)methoxy)(phenoxy)phosphoryl)amino)propanoate]
0.0%: Total Imp./Deg. (Batch B, 25° C./60% RH, 3 months) | Total Imp./Deg. (Batch B, 25° C./60% RH, 6 months) | Total Imp./Deg. (Batch B, 30° C./75% RH, 3 months) | Total Imp./Deg. (Batch B, 30° C./75% RH, 6 months) | Total Imp./Deg. (Batch B, 40° C./75% RH, 1 month) | Total Imp./Deg. (Batch B, 40° C./75% RH, 3 months) | Total Imp./Deg. (Batch B, 40° C./75% RH, 6 months) | Total Imp./Deg. (Batch D, 40° C./75% RH, 1 month) | Total Imp./Deg. (Batch D, Initial) | Total Imp./Deg. (%) (25° C./60% RH, 3 months) | Total Imp./Deg. (%) (25° C./60% RH, 6 months) | Total Imp./Deg. (%) (30° C./75% RH, 3 months) | Total Imp./Deg. (%) (30° C./75% RH, 6 months) | Total Imp./Deg. (%) (40° C./75% RH, 1 month) | Total Imp./Deg. (%) (40° C./75% RH, 3 months) | Total Imp./Deg. (%) (40° C./75% RH, 6 months) | Total Imp./Deg. (%) (Initial, time 0)
